The source of these data is doi:10.1101/427112.

By UniProt entry, the sequences of proteins in these tests, tags left out. Where a name states a change or a piece, a line headed by the entry shows the natural chain unless it says otherwise. Chains listed by the source or under a name are the forms on record and can include a tag or linker. Residues count along the entry.
integrin β5-BirA* fusion protein (P18084, residues 24-799): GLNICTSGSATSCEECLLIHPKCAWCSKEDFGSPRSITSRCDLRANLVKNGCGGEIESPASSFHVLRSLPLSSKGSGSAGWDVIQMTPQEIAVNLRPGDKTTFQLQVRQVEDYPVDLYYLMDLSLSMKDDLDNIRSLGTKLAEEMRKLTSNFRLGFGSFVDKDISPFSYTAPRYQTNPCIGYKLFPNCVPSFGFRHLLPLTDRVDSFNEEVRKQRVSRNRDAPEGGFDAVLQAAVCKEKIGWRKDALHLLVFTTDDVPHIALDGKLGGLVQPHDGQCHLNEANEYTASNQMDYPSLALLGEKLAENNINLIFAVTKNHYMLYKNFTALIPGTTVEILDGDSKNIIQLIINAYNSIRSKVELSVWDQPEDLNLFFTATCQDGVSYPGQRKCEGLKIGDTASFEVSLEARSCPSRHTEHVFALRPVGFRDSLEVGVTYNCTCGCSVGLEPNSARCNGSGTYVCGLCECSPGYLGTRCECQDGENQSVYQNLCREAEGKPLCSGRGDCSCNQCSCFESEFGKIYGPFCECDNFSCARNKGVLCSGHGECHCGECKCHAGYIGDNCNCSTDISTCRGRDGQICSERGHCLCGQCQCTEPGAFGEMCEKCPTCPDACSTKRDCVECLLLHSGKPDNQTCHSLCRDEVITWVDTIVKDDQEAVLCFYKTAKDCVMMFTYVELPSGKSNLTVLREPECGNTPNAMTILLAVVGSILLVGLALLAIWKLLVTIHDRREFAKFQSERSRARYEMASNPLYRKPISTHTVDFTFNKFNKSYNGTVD
integrin β5-BirA* with Y>A mutation in the membrane-distal NxxY motif (P18084, form named): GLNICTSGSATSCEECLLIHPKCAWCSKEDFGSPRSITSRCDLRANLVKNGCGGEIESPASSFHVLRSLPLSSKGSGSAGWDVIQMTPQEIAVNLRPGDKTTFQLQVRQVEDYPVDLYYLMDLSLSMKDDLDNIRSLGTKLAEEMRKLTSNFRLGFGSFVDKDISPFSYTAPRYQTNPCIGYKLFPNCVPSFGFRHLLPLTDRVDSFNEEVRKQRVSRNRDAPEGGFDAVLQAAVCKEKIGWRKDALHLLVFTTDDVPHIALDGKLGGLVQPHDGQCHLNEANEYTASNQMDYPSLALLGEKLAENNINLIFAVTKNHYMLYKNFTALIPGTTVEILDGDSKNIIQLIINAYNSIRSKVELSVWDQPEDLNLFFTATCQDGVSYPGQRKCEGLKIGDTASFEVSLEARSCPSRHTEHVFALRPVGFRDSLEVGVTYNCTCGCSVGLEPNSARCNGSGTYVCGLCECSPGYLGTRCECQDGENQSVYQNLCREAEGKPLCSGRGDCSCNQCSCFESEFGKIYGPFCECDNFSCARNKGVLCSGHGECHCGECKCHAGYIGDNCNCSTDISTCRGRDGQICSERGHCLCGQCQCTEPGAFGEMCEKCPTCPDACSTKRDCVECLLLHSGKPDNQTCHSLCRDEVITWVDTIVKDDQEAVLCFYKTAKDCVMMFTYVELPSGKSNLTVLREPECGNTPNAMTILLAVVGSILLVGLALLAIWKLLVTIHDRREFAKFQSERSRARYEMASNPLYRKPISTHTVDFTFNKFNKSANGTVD
integrin β5-BirA* with Y>A mutation in the membrane-proximal NPxY motif (P18084, form named): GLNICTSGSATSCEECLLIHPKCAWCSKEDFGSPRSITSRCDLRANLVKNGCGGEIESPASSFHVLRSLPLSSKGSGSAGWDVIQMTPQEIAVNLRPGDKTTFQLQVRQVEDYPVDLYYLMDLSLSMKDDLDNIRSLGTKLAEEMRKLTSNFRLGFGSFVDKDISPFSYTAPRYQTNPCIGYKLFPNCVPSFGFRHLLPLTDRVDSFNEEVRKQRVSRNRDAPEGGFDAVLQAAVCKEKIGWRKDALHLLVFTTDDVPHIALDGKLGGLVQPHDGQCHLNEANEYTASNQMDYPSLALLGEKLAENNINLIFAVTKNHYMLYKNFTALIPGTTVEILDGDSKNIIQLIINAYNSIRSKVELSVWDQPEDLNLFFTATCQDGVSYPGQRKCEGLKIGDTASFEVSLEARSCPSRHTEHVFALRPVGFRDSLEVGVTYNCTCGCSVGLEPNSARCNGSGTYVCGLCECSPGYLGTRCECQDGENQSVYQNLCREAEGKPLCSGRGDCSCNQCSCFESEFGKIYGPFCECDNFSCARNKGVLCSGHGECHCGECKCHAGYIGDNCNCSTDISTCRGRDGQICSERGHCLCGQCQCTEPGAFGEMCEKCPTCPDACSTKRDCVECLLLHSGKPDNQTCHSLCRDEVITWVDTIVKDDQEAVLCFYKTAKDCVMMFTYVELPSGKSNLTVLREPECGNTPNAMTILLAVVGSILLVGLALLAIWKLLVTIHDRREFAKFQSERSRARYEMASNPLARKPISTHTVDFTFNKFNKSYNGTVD
UniProt Q15811: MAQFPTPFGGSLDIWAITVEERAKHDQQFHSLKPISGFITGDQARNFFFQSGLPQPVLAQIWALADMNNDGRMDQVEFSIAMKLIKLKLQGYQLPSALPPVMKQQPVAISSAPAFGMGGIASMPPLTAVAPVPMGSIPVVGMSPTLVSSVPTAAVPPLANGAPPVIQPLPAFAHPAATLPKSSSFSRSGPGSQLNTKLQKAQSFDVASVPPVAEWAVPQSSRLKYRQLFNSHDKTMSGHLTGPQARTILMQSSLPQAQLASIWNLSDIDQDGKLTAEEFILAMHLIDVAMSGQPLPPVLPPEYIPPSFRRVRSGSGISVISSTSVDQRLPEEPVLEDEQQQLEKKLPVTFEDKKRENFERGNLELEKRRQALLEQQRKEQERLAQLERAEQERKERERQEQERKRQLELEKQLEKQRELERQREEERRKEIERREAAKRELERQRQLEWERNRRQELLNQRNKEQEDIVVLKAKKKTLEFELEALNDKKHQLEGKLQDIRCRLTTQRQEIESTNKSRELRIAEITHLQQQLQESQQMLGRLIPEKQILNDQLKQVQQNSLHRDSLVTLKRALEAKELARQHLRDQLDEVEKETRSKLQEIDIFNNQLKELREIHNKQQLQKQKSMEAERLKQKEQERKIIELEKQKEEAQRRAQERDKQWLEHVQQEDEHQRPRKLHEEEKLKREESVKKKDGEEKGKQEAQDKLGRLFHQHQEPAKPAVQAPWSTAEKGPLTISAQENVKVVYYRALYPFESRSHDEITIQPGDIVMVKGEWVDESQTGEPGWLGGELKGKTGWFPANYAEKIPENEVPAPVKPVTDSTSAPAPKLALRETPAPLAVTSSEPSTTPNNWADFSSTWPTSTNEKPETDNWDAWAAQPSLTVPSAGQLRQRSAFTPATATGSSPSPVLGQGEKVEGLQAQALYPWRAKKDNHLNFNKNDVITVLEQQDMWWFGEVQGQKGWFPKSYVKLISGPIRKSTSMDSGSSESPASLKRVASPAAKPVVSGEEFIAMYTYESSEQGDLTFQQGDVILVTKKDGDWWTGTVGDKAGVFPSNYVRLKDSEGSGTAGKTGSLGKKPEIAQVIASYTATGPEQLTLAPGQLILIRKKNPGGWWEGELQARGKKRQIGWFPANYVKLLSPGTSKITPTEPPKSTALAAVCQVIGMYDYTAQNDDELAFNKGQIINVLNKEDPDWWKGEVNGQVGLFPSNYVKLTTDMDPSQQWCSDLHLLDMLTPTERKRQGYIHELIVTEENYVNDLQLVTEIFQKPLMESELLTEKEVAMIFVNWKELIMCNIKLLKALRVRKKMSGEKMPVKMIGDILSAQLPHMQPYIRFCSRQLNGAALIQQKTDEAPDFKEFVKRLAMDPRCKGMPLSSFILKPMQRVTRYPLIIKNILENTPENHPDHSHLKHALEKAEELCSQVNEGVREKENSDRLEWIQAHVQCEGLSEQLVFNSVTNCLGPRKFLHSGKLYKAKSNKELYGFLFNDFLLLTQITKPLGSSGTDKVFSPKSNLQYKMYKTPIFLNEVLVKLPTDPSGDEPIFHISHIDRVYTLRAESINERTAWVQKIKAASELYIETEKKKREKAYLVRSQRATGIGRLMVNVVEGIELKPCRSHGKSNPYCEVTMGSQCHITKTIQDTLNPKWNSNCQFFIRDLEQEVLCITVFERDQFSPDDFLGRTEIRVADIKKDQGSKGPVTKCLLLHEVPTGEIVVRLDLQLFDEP

Like-named read-outs stand apart in the source and are kept apart here. These are yes or no findings as the source states them, for the method shown. In cells and extracts the contact can be indirect. A yes stands for co-enrichment or nearness to the bait. Other partners may have been found.

Assay in all cases: proximity labelling
Assay [1] has as its target integrin β5-BirA* fusion protein (wild type) (UniProt P18084).
For assay [2], the target named is integrin β5-BirA* with Y>A mutation in the membrane-distal NxxY motif (N2) (UniProt P18084).
The target of assay [3] is integrin β5-BirA* with Y>A mutation in the membrane-proximal NPxY motif (N1) (UniProt P18084).
Assay [4] deals with integrin β5-BirA* fusion protein (wild type) (UniProt P18084). The source holds these as a separate data set.

Turning to “intersectin-1 (from UniProt Q15811 1-1721)”, the binding entry in assay [1] is given as “binds”.

B1: Numb (protein, UniProt P49757 1-651)
chain: MNKLRQSFRRKKDVYVPEASRPHQWQTDEEGVRTGKCSFPVKYLGHVEVDESRGMHICEDAVKRLKAERKFFKGFFGKTGKKAVKAVLWVSADGLRVVDEKTKDLIVDQTIEKVSFCAPDRNFDRAFSYICRDGTTRRWICHCFMAVKDTGERLSHAVGCAFAACLERKQKREKECGVTATFDASRTTFTREGSFRVTTATEQAEREEIMKQMQDAKKAETDKIVVGSSVAPGNTAPSPSSPTSPTSDATTSLEMNNPHAIPRRHAPIEQLARQGSFRGFPALSQKMSPFKRQLSLRINELPSTMQRKTDFPIKNAVPEVEGEAESISSLCSQITNAFSTPEDPFSSAPMTKPVTVVAPQSPTFQANGTDSAFHVLAKPAHTALAPVAMPVRETNPWAHAPDAANKEIAATCSGTEWGQSSGAASPGLFQAGHRRTPSEADRWLEEVSKSVRAQQPQASAAPLQPVLQPPPPTAISQPASPFQGNAFLTSQPVPVGVVPALQPAFVPAQSYPVANGMPYPAPNVPVVGITPSQMVANVFGTAGHPQAAHPHQSPSLVRQQTFPHYEASSATTSPFFKPPAQHLNGSAAFNGVDDGRLASADRHTEVPTGTCPVDPFEAQWAALENKSKQRTNPSPTNPFSSDLQKTFEIEL
On to B1, for which the binding result in assay [2], in assay [3] and in assay [4] was “binds” each time.

B2: low density lipoprotein receptor adapter protein 1 (protein, UniProt Q5SW96 1-308)
chain: MDALKSAGRALIRSPSLAKQSWGGGGRHRKLPENWTDTRETLLEGMLFSLKYLGMTLVEQPKGEELSAAAIKRIVATAKASGKKLQKVTLKVSPRGIILTDNLTNQLIENVSIYRISYCTADKMHDKVFAYIAQSQHNQSLECHAFLCTKRKMAQAVTLTVAQAFKVAFEFWQVSKEEKEKRDKASQEGGDVLGARQDCTPSLKSLVATGNLLDLEETAKAPLSTVSANTTNMDEVPRPQALSGSSVVWELDDGLDEAFSRLAQSRTNPQVLDTGLTAQDMHYAQCLSPVDWDKPDSSGTEQDDLFSF
Regarding B2, the binding result in assay [1], in assay [2] and in assay [4] was “binds” throughout.
